# The entries are a selection whose mix differs from that of the whole data set. For part of these data: At the low end of the ranking the order means little.
# Target: T1, ETS2 (UniProt P15036)
# T1 sequence: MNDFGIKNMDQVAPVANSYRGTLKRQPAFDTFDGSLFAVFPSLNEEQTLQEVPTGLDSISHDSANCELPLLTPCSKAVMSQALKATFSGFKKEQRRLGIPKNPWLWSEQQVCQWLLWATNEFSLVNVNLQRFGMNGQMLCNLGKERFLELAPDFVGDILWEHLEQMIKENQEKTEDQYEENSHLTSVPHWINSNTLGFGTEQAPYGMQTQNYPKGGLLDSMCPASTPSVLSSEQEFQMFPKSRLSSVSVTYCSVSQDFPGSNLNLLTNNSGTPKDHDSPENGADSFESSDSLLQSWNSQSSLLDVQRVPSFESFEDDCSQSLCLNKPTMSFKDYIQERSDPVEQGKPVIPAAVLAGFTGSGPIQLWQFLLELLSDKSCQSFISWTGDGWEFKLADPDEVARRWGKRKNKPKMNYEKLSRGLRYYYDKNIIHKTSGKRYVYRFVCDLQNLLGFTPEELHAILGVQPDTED
# Assay: DAPPL (digital affinity profiling via proximity ligation, sequencing)
# Details: 10 mM Tris-HCl pH 7.5, 50 mM NaCl, 1 mM DTT, 4% glycerol, room temperature, 30 min; GST-TFs on glutathione beads, 16-mer random dsDNA library, 0.1% …; high values mean tight binding; double strand, one strand shown; scale: fold enrichment (6-mer frequency, TF over GST control)
row,Sequence,binding signal
1,AATACT,1.23
2,GGATAT,1.66
3,CTGATG,1.68
4,TTCATG,1.33
5,CTTTGC,1.34
6,CGCCTA,1.19
7,ATAAGT,1.06
8,TTTTAT,1.23
9,TTTGTT,1.26
10,AGATTT,1.17
11,GTTATT,1.14
12,TTACCT,1.32
13,TTTTCT,1.32
14,ACCTCT,1.23
15,TACAAT,1.34
16,CCTAAT,1.33
17,TAGAAT,1.06
18,CGCGCC,0.955
19,ATGAAG,1.06
20,TGTATG,1.26

row,Sequence,binding signal
1,TCCCAG,0.99
2,GCTCTA,1.16
3,TGGCCC,1.12
4,ACCCTC,1.19
5,TTACGG,1.43
6,TTCCAT,1.25
7,TAATAT,1.24
8,CGTAAA,1.14
9,ATCCAT,1.17
10,CGGAAA,2.07
11,CTCCAA,1.32
12,ATTACC,1.27
13,ATGCCC,1.29
14,TTCGTC,1.31
15,AATTAT,1.27
16,TGATCG,1.03
17,CCATTA,1.12
18,CCGAAT,1.22
19,ACTTAG,1.14

# Target: T2, ETV3 (UniProt P41162-2)
# T2 sequence: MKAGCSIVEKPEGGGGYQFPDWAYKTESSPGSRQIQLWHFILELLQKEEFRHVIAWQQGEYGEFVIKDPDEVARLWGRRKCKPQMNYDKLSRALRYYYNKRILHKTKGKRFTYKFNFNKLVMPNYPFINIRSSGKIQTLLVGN
# Assay: as above
# Details: 10 mM Tris-HCl pH 7.5, 50 mM NaCl, 1 mM DTT, 4% glycerol, room temperature, 30 min; GST-TFs on glutathione beads, 16-mer random dsDNA library, 0.1% …; high values mean tight binding; double strand, one strand shown; scale: fold enrichment (6-mer frequency, TF over GST control)
row,Sequence,binding signal
1,ATAAGT,1.03
2,AGATTT,1.05
3,CGCGCC,1.09
4,TCCCAG,1.07
5,GCTCTA,1.1
6,TGGCCC,1.03
7,CTCCAA,1.23
8,TGATCG,1.11
9,CCGAAT,1.12
